According to patent US20120065152A1 (SHIRE LLC, priority 2010, published 2012):
Values joined by “and” are separate entries in the source; they are usually repeats but may differ in a detail not shown here. Equal entries are not always repeated. Structures can show the parent of a compound that is named as a salt. For at least one compound, name, drawing or mass did not settle the structure.

Experiment: Stability studies on guanfacine prodrugs in buffers
Assay type: physicochemical
[1] = pH 1.2, 37° C., 0.1M HCl/NaCl buffer, time 0
[2] = pH 3.0, 20° C., 0.1M citrate buffer, time 0
[3] = pH 6.8, 37° C., 0.1M phosphate buffer, time 0
[4] = pH 7.4, 37° C., 0.1M phosphate buffer, time 0

## NC(=NC(=O)Cc1c(Cl)cccc1Cl)NC(=O)OCc1ccccc1 [Compound 10, {N′-[2-(2,6-Dichloro-phenyl)-acetyl]guanidino-carbonyloxy}toluene Hydrochloride]
pH 1.2, 37° C., 0.1M HCl/NaCl buffer, 1 h
  Active drug: 0.0
pH 1.2, 37° C., 0.1M HCl/NaCl buffer, 1 h, listed as Guanfacine Benzyl Carbamate Hydrochloride, Hydrochloride
  Pro-drug: 90.7 and 90.3
[1]
  Active drug: 0.0
  Pro-drug: 100
pH 3.0, 20° C., 0.1M citrate buffer, 2 h
  Active drug: 0.0
pH 3.0, 20° C., 0.1M citrate buffer, 2 h, listed as Guanfacine Benzyl Carbamate Hydrochloride, Hydrochloride
  Pro-drug: 100.4 and 100.5
[2]
  Active drug: 0.0
  Pro-drug: 100
pH 6.8, 37° C., 0.1M phosphate buffer, 2 h
  Active drug: 0.0
pH 6.8, 37° C., 0.1M phosphate buffer, 2 h, listed as Guanfacine Benzyl Carbamate Hydrochloride, Hydrochloride
  Pro-drug: 94.0 and 95.3
[3]
  Active drug: 0.0
  Pro-drug: 100
pH 7.4, 37° C., 0.1M phosphate buffer, 2 h
  Active drug: 0.0
pH 7.4, 37° C., 0.1M phosphate buffer, 2 h, listed as Guanfacine Benzyl Carbamate Hydrochloride, Hydrochloride
  Pro-drug: 98.6 and 99.0
[4]
  Active drug: 0.0
  Pro-drug: 100
